The results in this text go back to patent publication US20200024319A1.

Amino acid sequences for entries named in this document (tags omitted). A change or cut given only in a name is not applied to a line headed by its entry. Residues count along the entry.
UniProt P60568: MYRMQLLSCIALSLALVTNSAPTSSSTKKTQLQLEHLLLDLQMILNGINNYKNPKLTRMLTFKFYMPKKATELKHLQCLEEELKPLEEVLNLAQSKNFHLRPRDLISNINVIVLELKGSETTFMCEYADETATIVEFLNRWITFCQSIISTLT
UniProt Q29615, residues 21-154: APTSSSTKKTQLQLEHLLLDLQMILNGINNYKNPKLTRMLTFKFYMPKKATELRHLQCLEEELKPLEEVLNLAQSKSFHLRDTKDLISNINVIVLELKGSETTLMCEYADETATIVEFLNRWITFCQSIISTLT

In test [1] the target is wild-type human IL-2 (human) (UniProt P60568). The test is described as follows: ELISA.
Test [2] concerns the target cynomolgus monkey IL-2 (cynomolgus monkey) (UniProt Q29615). The test is described as follows: ELISA.

Positions count from the first letter of the chain named. Results are given in words; binding and its absence hold for the method and conditions named. Some results given as binding are weak or reduced against the parent protein; the word gives no strength.

B1: 10A9 (antibody, V domains shown)
VH: EVQLVQSGAEVKKPGESLKISCKGSGYSFTSQWIGWVRQMPGKGLEWMGIIFPGDSDTRYSPSFQGQVTISADKSISTAYLQWSSLKASDTAMYYCARQGRSYHYYGMDVWGQGTTVTVSS
VL: DIVMTQTPLSLPVTPGEPASISCRSTQSLLDGDDGNTLLDWYLQKPGQSPQLLIYTLSYRASGVPDRFSGSGSGTDFTLKISRVEAEDVGVYYCMQRLEFPLTFGGGTKVEIK
Take B1: the binding result in test [1] and in test [2] was “binds” each time.

B2: 16E3 (antibody, V domains shown)
VH: B1 VH with S28G, S31N, Q32Y, I50T, F52Y, I70F, H104Y, Y106F
VL: B1 VL with T26S, G32S, D34E, L38F, S49P, L98I
For the molecule B2, the binding result in test [1] and in test [2] was “binds” in each case.

B3: 2B12 (antibody, V domains shown)
VH: EVQLVQSGAEVKKPGESLKISCKGSGYNFTNYWIGWVRQMSGKGLEWMGIIYPGDSETRYSPSFQGQVTISADKSISTAYLQWSSLKASDTAMYYCARHGGGWSGWGMDVWGQGTTVTVSS
VL: SYELTQPPSVSVSPGQTARITCSGDALPRKYAYWYQQKSGQAPVLVIYEDSKRPSGIPERFSGSSSGTMATLTISGAQVEDEADYYCYSTDSSGNHYVFGTGTKVTVL
Regarding B3, the binding entry in test [1] and in test [2] was “binds” each time.

B4: 14A6 (antibody, V domains shown)
VH: QVQLVQSGAEVKKPGASVKVSCKASGYTFTTYDINWVRQATGQGLEWMGWMNPNSGNTGYAQKFQGRVTMTRNTSISTAYMELSSLRSEDTAVYYCARGRQWLGFDYWGQGTLVTVSS
VL: DIQMTQSPSSLSASVGDRVTITCRASQGIGDDLGWYQQKPGKAPQRLIYSASSLPSGVPSRFSGSGSGTEFTLTISSLQPEDFATYYCLQHNSYPRSFGQGTKLEIR
B4: the binding result in test [1] and in test [2] was “binds” throughout.

B5: 11D6 (antibody, V domains shown)
VH: B4 VH with T31N, S77N
VL: B4 VL with G28D, G30E, D31H, Q45K, S50A, S53T, Y94F, K103Q, R107K
B5: the binding entry in test [1] and in test [2] was “binds” in each case.

B6: 5H3 (antibody, V domains shown)
VH: EVQLVQSGAEVKKPGESLKISCKGSGYSFTSYWIGWVRQMPGKGLEWMGIIYPGDSDTTYSPSFQGQVTISADKSINTAYLQWSSLKASDTAMYYCAREGFGESIHYGLDVWGQGTTVTVSS
VL: SYELTQPPSVSVSPGQTARITCSGDALPRQYAYWYQQKPGQAPMLVIYKDSERPSGIPERFSGSSSGTTVTLTISGVQAEDEADYYCQSADSSGTYVVFGGGTKLTVL
On to B6, for which the binding entry in test [1] and in test [2] was “binds” throughout.

B7: 14D7 (antibody, V domains shown)
VH: QVQLQESGPGLVKPSQTLSLTCTVSGGSISSGGYYWNWIRQHPGKGLEWIGYIYYSGNTHYNPSLKSRVTISVDTSKNQFSLKLSSVIAADTAVYYCARDWGRDAFDIWGQGTMVTVSS
VL: DIQMTQSPSSLSASVGDRVTITCRASQTISSYLNWYQQKPGKAPKVLIYAASSFQSGVPSRFSGSGSGTDFTLTISSLQPEDFATYYCQQSHYIPRTFGQGTKVEIK
As to B7, the binding entry in test [1] and in test [2] was “binds” in each case.

B8: 17D9 (antibody, V domains shown)
VH: QVQLQESGPGLVKPSETLSLTCTVSGGSVSSGGYYWSWIRQPPGKGLEWIGNTYYSGSTNYKPSLKSRVTISVDTSKNQFSLKLSSVTAADTAVYYCGRDRGRAVGPFDYWGQGTLVTVSS
VL: DIQMTQSPSSLSASVGDRVTITCRASQDIRNDLGWYQQKPGKAPKRLIYAASSLQSGVPSRFSGSGSGTEFTLTIGSLQPEDFTTYYCLQHNSYPLTFGGGTKVEIK
For the molecule B8, the binding result in test [1] and in test [2] was “binds” each time.
